{"source": "patent US8003083B2", "about": "“Benzylidene malonamide and salt thereof, ultraviolet ray absorbent, and agent for external application to the skin” (Shiseido Company, Ltd., priority 2006, dated 2011)", "key": {"[1]": {"assay": "Photostability test, sunlight exposure", "type": "physicochemical", "details": "290-400 nm integrated, after sunlight for two weeks, 80 MJ/m^2; water, 10 ppm, 1 cm", "procedure": "A solution of the ultraviolet absorbent of the present invention was exposed to sunlight for two weeks (sunlight exposure level 80 MJ/m^2) and then the residual ratio and changes in the appearance were investigated and the ultraviolet absorption spectrum was measured (solvent: water, concentration 10 ppm, optical path length 1 cm) by using a spectrophotometer; the ultraviolet absorption spectrum was integrated over a range of 290-400 nm to obtain the area value, which was compared with the value before the sunlight exposure.\nChanges in the residual ratio and the area value of the ultraviolet absorption spectrum were evaluated based on the following criteria.\nΔ: 70% or more and less than 90% of the value before the sunlight exposure.\nX: Less than 70% of the value before the sunlight exposure."}, "[2]": {"tested_on": "degree of sunburn after exposure to direct sunlight", "assay": "Ultraviolet prevention effect, actual use test on a beach in summer", "type": "in vivo, human", "procedure": "An actual use test was conducted on a beach in summer. The same amount of sample was applied on the left and right halves of panelists' backs. The degree of sunburn after exposure to direct sunlight was evaluated based on the following criteria. The test was conducted with a group of 10 panelists.\nVery effective: No or very little sunburn symptoms were observed.\nEffective: A mild degree of sunburn symptoms were observed.\nNot effective: A strong degree of sunburn symptoms were observed.\n⊚: 80% or more of the subjects report “very effective” or “effective.”\n◯: 50% or more and less than 80% of the subjects report “very effective” or “effective.”\n∇: 30% or more and less than 50% of the subjects report “very effective” or “effective.”\nX: Less than 30% of the subjects report “very effective” or “effective.”\n(a) lotion and (b) cream were prepared according to the following recipes. For the ultraviolet absorbent, benzilidene malonamide (bis-N,N′-[2-(2-hydroxyethoxy)ethyl]-4-methoxybenzilidene malonamide) of the present invention and, as a Comparison example, a water soluble ultraviolet absorbent sodium 2-hydroxy-4-methoxy-5-sulfoquisonium benzophenone were used.\nThe water phase and the alcohol phase were separately prepared and then mixed together.\nPropylene glycol and the ultraviolet absorbent were dissolved in ion-exchanged water and the temperature was raised to 70° C. and maintained. The other ingredients were mixed, heated and melted, and the temperature was maintained at 70° C. (oil phase). The oil phase was added to the water phase and pre-emulsification was conducted; after a homomixer was used to emulsify the mixture homogeneously, the temperature was cooled down to 30° C. while thorough stirring was maintained."}}}
{"smiles": "COc1cc(O)c(C(=O)c2ccccc2)cc1S(=O)(=O)[O-].[Na+]", "note": "[sodium 2-hydroxy-4-methoxy-5-sulfoxonium benzophenone, reference compound]", "values": [{"measurement": "Changes in the area value of the ultraviolet absorption spectrum", "setting": "[1]", "result": "◯ (90% or more and less than 95% of the value before the sunlight exposure.)"}, {"measurement": "Ultraviolet prevention effect", "setting": "[2]; (a) Lotion, blend ratio 1, 10 panelists", "result": "Δ"}, {"measurement": "Ultraviolet prevention effect", "setting": "[2]; (a) Lotion, blend ratio 5, 10 panelists", "result": "Δ"}, {"measurement": "Ultraviolet prevention effect", "setting": "[2]; (b) Cream, blend ratio 1, 10 panelists", "result": "Δ"}, {"measurement": "Ultraviolet prevention effect", "setting": "[2]; (b) Cream, blend ratio 5, 10 panelists", "result": "Δ"}]}
